The values below come from patent US20110257102A1 (CASE WESTERN RESERVE UNIVERSITY, published 2011).

The target in assay [1] is GST-tagged FLNa domains 15-16 (UniProt P21333). The assay is described as follows: in vitro pull-down with mAb 8H4 and protein G beads, anti-GST immunoblot.
For assay [2] the target is unchanged. The assay is described as follows: in vitro pull-down assays, immunoblots.

Results are given in words; binding and its absence hold for the method and conditions named. Some results given as binding are weak or reduced against the parent protein; the word gives no strength.

Take “recombinant pro-PrP^23-253 (from UniProt P04156 23-253)”: the binding entry in assay [1] and in assay [2] was “binds” each time.
